{
  "source": "paper PMC7390679",
  "about": "(Bioorganic chemistry, 2020)",
  "key": {"CVB3": {"test_system": "CVB3", "test": "CPE antiviral assay, CVB3 in Vero C1008 cells", "assay_type": "cell-based", "conditions": "Enterovirus B, CVB3, Vero C1008, read-out: EC50 against CVB3"}, "EV-A71 Tainan/4643/98": {"test_system": "EV-A71 Tainan/4643/98", "test": "CPE antiviral assay, EV-A71 Tainan/4643/98 in RD cells", "assay_type": "cell-based", "conditions": "Enterovirus A, EVA71, RD, read-out: EC50 against EV-A71 Tainan"}},
  "data": [
    {"smiles": "CNCCC(Oc1ccc(C(F)(F)F)cc1)c1ccccc1", "note": "(centres unmarked) [fluoxetine]", "values": [
      {"measurement": "EC50", "setting": "CVB3", "result": 2100, "unit": "nM"},
      {"measurement": "EC50", "setting": "EV-A71 Tainan/4643/98", "result": "> 10000", "unit": "nM"}
    ]}
  ]
}
